The inconclusive results got no clear call from the source; some entries with a clear call stand among them for comparison. Potencies of inconclusive entries are doubtful fits and often do not repeat. The source made the active and inactive calls. The call rests on the fitted dose curve; in most records, active means well fitted inhibition curve with a large enough effect; inconclusive means small, poorly fitted or top-dose-only effect; inactive means flat fitted curve, though single readings scatter.
target: Luciferin 4-monooxygenase (Photinus pyralis) (UniProt P08659); experiment: qHTS Assay for Inhibitors of Firefly Luciferase from the GSK Published Protein Kinase Inhibitor Set; conditions: purified firefly luciferase, luminescence inhibition; series mostly up to 57.5 µM; activity change, negative = inhibition: at the top concentration
Description: FLuc (firefly luciferase) is the prototypical bioluminescent reporter gene from Photinus pyralis.[1] The enzyme catalyzes the oxidation luciferin via luciferin-AMP to produce light. FLuc is used in cell-based reporter gene-based assays for screening small molecule chemical libraries. However, small molecule luciferase inhibitors present in most large chemical libraries are often enriched in the output of high throughput screens using this reporter sometimes complicating interpretation and candidate selection.
RLuc is a bioluminescent reporter gene luciferase from Renilla reniformis, also known as the sea pansy. RLuc uses the luciferin substrate coelenterazine. RLuc is often used in combination with the nonhomologous luciferase FLuc (firefly luciferease) as a trasfection or pathway normalization control. Recently, non-homologous reporters have been described for high throughput screening 'coincidence' reporter gene strategies.
1. Fan F, Wood KV (2007) Bioluminescent assays for high-throughput screening. Assay Drug Dev Technol 5: 127-136.
2. Thorne N, Inglese J, Auld DS (2010) Illuminating insights into firefly luciferase and other bioluminescent reporters used in chemical biology. Chem Biol 17: 646-657.
3. […] Chem Biol 19: 1060-1072.
4. Michelini E, Cevenini L, Mezzanotte L, Coppa A, Roda A (2010) Cell-based assays: fuelling drug discovery. Anal Bioanal Chem 398: 227-238.
5. Cheng KC, Inglese J (2012) A coincidence reporter-gene system for high-throughput screening. Nat Methods 9: 937.
Biochemical firefly luciferase enzyme assay
NCGC Assay Protocol Summary:
Reagents: 50mM Tris acetate, pH 7.5; 10mM Mg acetate; 10uM D-luciferin (Sigma #L9504); 10uM ATP; 0.01% Tween-20; 0.05% BSA; 10nM P. pyralis luciferase (Sigma #L9506)
Control compounds used were two known firefly luciferase inhibitors (compounds (2) and (5) in Auld et al., 2010), and DMSO.
Three microliters containing firefly luciferase substrates in buffer (final concentrations: 50mM Tris acetate, pH 7.5, 10mM Mg acetate, 0.01% Tween-20, 0.05% BSA, 10uM D-luciferin, and 10uM ATP) are dispensed into each well of a Greiner white, solid-bottom 1536-well format plate using a flying reagent dispenser (FRD). These assay plates were then treated with 23nL of compound or DMSO using a Kalypsys pin tool, which allows for delivery of a 7-point interplate titration of each compound to the assay plates (quantitative HTS), with final compound concentrations ranging from approximately 60uM to 300pM. One microliter of firefly luciferase in 50mM Tris-acetate buffer was then delivered by FRD to each well for a final enzyme concentration of 10nM. Luciferase activity was then measured using an Envision plate reader (PerkinElmer), with an average incubation time of 5 min.
On the % scale 0 is the no-effect control and ±100 the full control effect; potency means the concentration at half of the fitted maximal effect.

Sequences of proteins named here, by UniProt entry; tags and fusion partners are left off.
UniProt P08659, whole entry, looked up: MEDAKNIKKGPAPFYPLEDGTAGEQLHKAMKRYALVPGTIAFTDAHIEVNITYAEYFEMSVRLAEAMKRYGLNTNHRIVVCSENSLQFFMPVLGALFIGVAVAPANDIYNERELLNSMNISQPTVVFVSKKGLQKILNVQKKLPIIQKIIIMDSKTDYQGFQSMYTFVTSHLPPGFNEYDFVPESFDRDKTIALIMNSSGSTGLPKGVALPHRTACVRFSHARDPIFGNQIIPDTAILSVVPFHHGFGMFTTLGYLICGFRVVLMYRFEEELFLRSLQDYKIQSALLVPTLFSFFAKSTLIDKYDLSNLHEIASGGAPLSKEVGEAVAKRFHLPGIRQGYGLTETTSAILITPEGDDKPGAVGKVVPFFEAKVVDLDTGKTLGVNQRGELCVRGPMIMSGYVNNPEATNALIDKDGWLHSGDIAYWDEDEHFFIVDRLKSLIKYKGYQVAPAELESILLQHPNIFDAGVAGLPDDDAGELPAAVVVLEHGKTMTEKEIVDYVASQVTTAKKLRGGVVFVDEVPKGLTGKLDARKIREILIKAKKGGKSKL

Which Potency does the source give for Cc1nnc(-c2ccc(C)c(-c3ccc(C(=O)Nc4cccc(C#N)c4)cc3)c2)o1 here?
Its Potency is inconclusive: 41.1 µM [inhibitor, single point].

CCc1cccc(NC(=O)Nc2ccc(Oc3ccc4nc(NC(=O)OC)[nH]c4c3)cc2)c1 was tested. Which Potency did it give?
Its Potency is inconclusive: 32.6 µM [inhibitor, partial curve, poor fit].

Which Potency does the source give for CCn1c(-c2nonc2N)nc2cnc(Oc3cccc(NC(=O)c4ccc(N(C)C)cc4)c3)cc21 here?
Its Potency is active: 1.03 µM.

CC(C)(CO)CNC(=O)c1ccc2[nH]c(O)c(N=Nc3ccc(S(N)(=O)=O)cc3)c2c1 was tested. Which Potency did it give?
The Potency was inconclusive: 41.1 µM [inhibitor, partial curve, poor fit].

With O=C1NC(=O)C(N2CCc3ccccc32)=C1c1ccc(Cl)cc1 as the compound, how does the Potency read?
The Potency was inconclusive: 6.51 µM [inhibitor, partial curve, poor fit].

For CCn1c(-c2nonc2N)nc2c(C#CC(C)(C)O)nc(OCCNC)cc21, which “activity change, negative = inhibition” value is on record?
Its value is inactive: 2.21%.

How did the “activity change, negative = inhibition” value turn out when COc1cc(Nc2nccc(-c3cnn4ncccc34)n2)cc(OC)c1 was run?
Its value is inactive: -15.6%.

With NS(=O)(=O)c1ccc(N=Nc2c(O)[nH]c3ccc(C(=O)NCCc4cnc[nH]4)cc23)cc1 as the compound, how does the “activity change, negative = inhibition” value read?
Its value is inactive: 4.63%.

Fc1ccc(-c2ncn(C3CCNCC3)c2-c2ccnc(Oc3ccc4c(c3)OCO4)n2)cc1 was tested. Which Potency did it give?
The Potency was inconclusive: 32.6 µM [inhibitor, single point].

For NS(=O)(=O)c1cccc(N=Cc2c(O)[nH]c3ccccc23)c1, which Potency is on record?
The Potency was inconclusive: 18.3 µM [inhibitor, partial curve].

How did the Potency turn out when COc1cc(C=NNc2ncnc3c2cnn3Cc2ccccc2)ccc1O was run?
Its Potency is inconclusive: 29.1 µM [inhibitor, partial curve, poor fit].

Which Potency does the source give for COc1ccccc1-c1cc(C=C2C(=O)Nc3ncc(Br)cc32)cc(Br)c1O here?
The Potency was inconclusive: 41.1 µM [inhibitor, partial curve, poor fit].

With FC(F)(F)c1cccc(-c2nn3ncccc3c2-c2ccnc(Nc3ccc4c(c3)OCCO4)n2)c1 as the compound, how does the Potency read?
The Potency was inconclusive: 32.6 µM [inhibitor, partial curve].

With CNC(=O)c1cncc(C=Cc2c(Cl)cccc2Cl)c1 as the compound, how does the Potency read?
The Potency was active: 16.3 µM.

With O=S1CCN(Cc2ccc(-c3ccc4ncnc(Nc5ccc(OCc6ccccc6)c(Cl)c5)c4c3)o2)CC1 as the compound, how does the Potency read?
The Potency was inconclusive: 14.6 µM [inhibitor, partial curve].

COc1ccc(-c2nn3ncccc3c2-c2ccnc(Nc3ccc(F)c(F)c3)n2)cc1 was tested. Which “activity change, negative = inhibition” value did it give?
The value was inactive: 1.64%.

Which “activity change, negative = inhibition” value does the source give for CCn1c(-c2nonc2N)nc2ccncc21 here?
Its value is inactive: 0.105%.

With CN(c1ccc(NC(=O)Nc2c(Cl)cccc2Cl)cc1)c1ccnc(Nc2cccc(CS(C)(=O)=O)c2)n1 as the compound, how does the Potency read?
The Potency was active: 0.58 µM.

Which Potency does the source give for Fc1ccc(-c2nn3ncccc3c2-c2ccnc(Nc3ccc4c(c3)OCCO4)n2)cc1 here?
The Potency was inconclusive: 18.3 µM [inhibitor, partial curve].

For O=C1Nc2ccccc2C1=C1CCc2cc(O)ccc21, which Potency is on record?
Its Potency is active: 5.17 µM.

With CS(=O)(=O)CCNCc1ccc(-c2ccc3ncnc(Nc4ccc(OCc5ccccc5)c(Br)c4)c3c2)o1 as the compound, how does the Potency read?
Its Potency is inconclusive: 20.6 µM [inhibitor, partial curve].

O=C(Nc1n[nH]c2cc(-c3ccc(F)cc3)ccc12)C1CC1 was tested. Which Potency did it give?
The Potency was inconclusive: 16.3 µM [inhibitor, partial curve, poor fit].

With NS(=O)(=O)c1ccc(N=Nc2c(=O)[nH]c3ccc4[nH]cccc4c23)cc1 as the compound, how does the Potency read?
The Potency was inconclusive: 29.1 µM [inhibitor, single point].

Nc1ccc(C#Cc2cncnc2Nc2ccc(OCc3cccc(F)c3)c(Cl)c2)cc1 was tested. Which Potency did it give?
The Potency was inconclusive: 20.6 µM [inhibitor, partial curve].

For c1ccc(Nc2ncc(-c3ccccc3)o2)cc1, which Potency is on record?
Its Potency is active: 0.259 µM.

How did the Potency turn out when CN(c1ccc(NC(=O)Nc2ccc(OC(F)(F)F)cc2)cc1)c1ccnc(Nc2cccc(S(N)(=O)=O)c2)n1 was run?
The Potency was inconclusive: 18.3 µM [inhibitor, partial curve].

How did the Potency turn out when O=C1Nc2ccc(-c3cccnc3)cc2C1=Cc1cc(Br)c(O)c(Br)c1 was run?
The Potency was inconclusive: 32.6 µM [inhibitor, partial curve].

How did the “activity change, negative = inhibition” value turn out when Cc1nn(C)c2cc(N(C)c3ccnc(Nc4cccc(S(N)(=O)=O)c4)n3)ccc12 was run?
Its value is inactive: 0.13%.

With c1cnn2ncc(-c3ccnc(Nc4ccc5c(c4)OCCO5)n3)c2c1 as the compound, how does the Potency read?
Its Potency is inconclusive: 2.91 µM [inhibitor, partial curve, poor fit].

COc1ccc2cc(-c3c(-c4ccncc4)nc(-c4ccc(S(C)=O)cc4)n3C)ccc2c1 (stereo not given) was tested. Which Potency did it give?
Its Potency is inconclusive: 36.6 µM [inhibitor, single point].

With NC(=O)c1cccc(Nc2nccc(Nc3cccc(F)c3)n2)c1 as the compound, how does the Potency read?
The Potency was active: 0.73 µM.

How did the Potency turn out when CN(C)CCCNc1nccc(-c2c(-c3ccc(F)cc3)nn3cc(C(F)(F)F)ccc23)n1 was run?
Its Potency is inconclusive: 41.1 µM [inhibitor, single point].

For Cc1cc(Cl)cc2c(N=Nc3ccc(S(N)(=O)=O)cc3)c(O)[nH]c12, which “activity change, negative = inhibition” value is on record?
The value was inactive: 2.74%.

Cc1ccc(O)cc1Nc1ccnc2ccc(S(C)(=O)=O)cc12 was tested. Which Potency did it give?
The Potency was inconclusive: 41.1 µM [inhibitor, single point].

Which “activity change, negative = inhibition” value does the source give for NC(=O)c1sc(-n2cnc3cc(C(F)(F)F)ccc32)cc1OCc1ccccc1Br here?
Its value is inactive: 8.49%.

Which “activity change, negative = inhibition” value does the source give for NS(=O)(=O)c1ccc(N=Nc2c(O)[nH]c3ccc(C(=O)NCCCn4ccnc4)cc23)cc1 here?
Its value is inactive: 7.5%.

Which Potency does the source give for CN(c1ccc(NC(=O)NCCN2CCOCC2)cc1)c1ccnc(Nc2ccc(CS(C)(=O)=O)cc2)n1 here?
The Potency was inconclusive: 20.6 µM [inhibitor, partial curve].

CN(C)c1cc2c(Nc3ccc4nc(Cc5ccccc5)[nH]c4c3)ncnc2cn1 was tested. Which Potency did it give?
Its Potency is inconclusive: 16.3 µM [inhibitor, partial curve].

With COC(=O)Nc1nc2ccc(Oc3ccc(NC(=O)Nc4cccc(Cl)c4)cc3)cc2[nH]1 as the compound, how does the Potency read?
The Potency was inconclusive: 20.6 µM [inhibitor, partial curve, poor fit].

With Fc1ccc(-c2ncn(C3CCNCC3)c2-c2ccnc(Oc3ccccc3)n2)cc1 as the compound, how does the Potency read?
The Potency was inconclusive: 20.6 µM [inhibitor, partial curve].
